Data published in patent US20160137714A1 (Thrasos Innovation, Inc., priority 2014, published 2016).
The same purity stands for every peptide and may come from a single statement. HELM strings list residues between dots; [ac] is acetyl, [am] amide, other brackets name non-standard units. No end group written: not given here.

Assays:
[1] = general procedure: Fmoc solid-phase peptide synthesis; Fmoc-Ser(tBu)-Wang; settings: whole synthesis, TFA salt
[2] = general procedure: Fmoc solid-phase peptide synthesis; Wang resin; settings: whole synthesis, TFA salt
[3] = one disulfide bridge, sequence written open

Row | Substance | final HPLC purity [1] | also measured
1 | PEPTIDE1{C.Y.Y.D.N.S.S.S.V.L.C.K.K.Y.R.S}$PEPTIDE1,PEPTIDE1,1:R3-11:R3$$$V2.0 | >95% | 
2 | PEPTIDE1{C.Y.F.D.D.S.S.N.V.L.C.K.R.Y.R.S}$PEPTIDE1,PEPTIDE1,1:R3-11:R3$$$V2.0 | >95% | 
3 | CYFDDSSNVLCK (cysteine pairing not given here) |  | final HPLC purity [2, 3]: >95%
4 | PEPTIDE1{C.Y.F.D.D.S.S.N.V.L.C}$PEPTIDE1,PEPTIDE1,1:R3-11:R3$$$V2.0 |  | final HPLC purity [2]: >95%
5 | PEPTIDE1{C.Y.Y.F.N.S.S.Q.V.L.C.K.R.[dY].R.S}$PEPTIDE1,PEPTIDE1,1:R3-11:R3$$$V2.0 | >95% | 
6 | PEPTIDE1{C.Y.F.D.D.S.S.N.V.L.C.K.R.[dY].R.S}$PEPTIDE1,PEPTIDE1,1:R3-11:R3$$$V2.0 | >95% | 
7 | PEPTIDE1{C.Y.F.D.D.S.S.N.V.L.C.K.K.Y.[dR].S}$PEPTIDE1,PEPTIDE1,1:R3-11:R3$$$V2.0 | >95% | 
8 | PEPTIDE1{C.Y.F.D.D.S.S.N.V.L.C.K.[dK].Y.R.S}$PEPTIDE1,PEPTIDE1,1:R3-11:R3$$$V2.0 | >95% | 
9 | PEPTIDE1{C.Y.F.D.D.S.S.N.V.L.C.K.K.Y}$PEPTIDE1,PEPTIDE1,1:R3-11:R3$$$V2.0 |  | final HPLC purity [2]: >95%
10 | PEPTIDE1{C.Y.Y.D.D.S.S.S.V.L.C.K.K.Y.R.S}$PEPTIDE1,PEPTIDE1,1:R3-11:R3$$$V2.0 | >95% | 
11 | PEPTIDE1{C.Y.Y.D.N.S.S.S.V.L.C.K.R.Y.R.S}$PEPTIDE1,PEPTIDE1,1:R3-11:R3$$$V2.0 | >95% | 
12 | CYFDDSSNVLCKK (cysteine pairing not given here) |  | final HPLC purity [2, 3]: >95%
13 | PEPTIDE1{C.Y.Y.D.N.S.S.S.V.L.C.K.R.[dY].R.S}$PEPTIDE1,PEPTIDE1,1:R3-11:R3$$$V2.0 | >95% | 
14 | PEPTIDE1{C.Y.Y.D.N.S.S.S.V.L.C.K.K.[dY].R.S}$PEPTIDE1,PEPTIDE1,1:R3-11:R3$$$V2.0 | >95% | 
15 | PEPTIDE1{C.Y.Y.D.D.S.S.S.V.L.C.K.K.[dY].R.S}$PEPTIDE1,PEPTIDE1,1:R3-11:R3$$$V2.0 | >95% | 
